# In patent publication US20120021999A1 (published 2012):
# By UniProt entry, the sequences of proteins in these tests, tags left out.
# UniProt P63330: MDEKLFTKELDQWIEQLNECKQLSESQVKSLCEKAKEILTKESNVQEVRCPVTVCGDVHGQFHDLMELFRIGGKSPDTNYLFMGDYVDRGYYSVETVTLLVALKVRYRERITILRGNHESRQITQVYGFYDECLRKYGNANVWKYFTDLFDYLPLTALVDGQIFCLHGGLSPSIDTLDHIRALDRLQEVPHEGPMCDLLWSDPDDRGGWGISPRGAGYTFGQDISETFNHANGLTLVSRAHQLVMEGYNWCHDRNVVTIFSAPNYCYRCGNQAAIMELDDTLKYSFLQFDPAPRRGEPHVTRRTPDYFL
# Results are given in words; binding and its absence hold for the method and conditions named. Binding seen in cells or lysates may run through a third protein. Some binding calls cover weakened binding; strength is not graded here.
# B1: C9 (peptide)
# peptide: YIETLDGILEQWARSEDL
# modifications: NH2-biotinylated
# B2: DPT-C9 (peptide)
# peptide: VKKKKIKREIKIYIETLDGILEQWARSEDL
# modifications: NH2-biotinylated
# Molecular target: PP2Ac from IL-2-stimulated TS1αβ cellular extracts (mouse) (UniProt P63330)
# Test: pull-down of biotinylated peptide on streptavidin beads from TS1αβ cell extracts, anti-PP2Ac immunoblot
row,Binder,binding
1,B1,binds
2,B2,binds
